Record: PubChem BioAssay AID652243 (Drosophila RNAi Screening Center, 2013)

Test: 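Knock-downs that decrease or increase androgen receptor reporter signal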 (primary screen)
System: Drosophila S2R+ cells
Reagents: long dsRNA against Drosophila genes
Timing: 72 h (48 h, then 24 h hormone)
Conditions: synthetic androgen R1881 at 10 nM for 24 h
Read-out: 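Firefly light from an androgen-responsive reporter and Renilla control light per well, raw and unnormalised, for each of two replicates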
Direction: firefly reporter light: higher = more light from androgen-responsive reporter; Renilla control light: higher = more constitutive control signal (cell number, transfection)
Hit rule: 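Across duplicate plates, a knock-down whose log firefly/Renilla ratio shifted a set fold down or up from the GFP/LacZ control mean was a hit; the downward cut appears as both 1.5 and 3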
Meaning of the calls: active = hit: reporter lowered or raised; inactive = no hit
The screen tested about 24,000 reagents; below is a random part of those that have a named target and a result. In the full data, 246 (1%) were called active. 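Plates not normalised; calls are printed but the firefly/Renilla ratio behind them is not deposited; fold cut for lowering reported inconsistently.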 Raw values vary from plate to plate and are shown uncorrected. Reagents against one gene are numbered here. Names joined by + are all predicted targets of the reagent. The record does not give: the amount of reagent.

| gene | reagent | firefly reporter light, replicate 1 | firefly reporter light, replicate 2 | Renilla control light, replicate 1 | Renilla control light, replicate 2 | Outcome |
| --- | --- | --- | --- | --- | --- | --- |
| Tsp97E (GeneID 43241) | 1 | 64170 | 1.13e5 | 6.06e5 | 7.58e5 | inactive |
| Tsp97E (GeneID 43241) | 2 | 3.78e5 | 4.40e5 | 1.54e6 | 1.44e6 | inactive |
| MTA1-like (GeneID 40693) | 1 | 88765 | 1.15e5 | 2.48e6 | 2.62e6 | inactive |
| MTA1-like (GeneID 40693) | 2 | 4.88e5 | 4.47e5 | 2.03e6 | 2.06e6 | active |
| MTA1-like (GeneID 40693) | 3 | 4.93e5 | 4.73e5 | 5.18e5 | 5.15e5 | inactive |
| MTA1-like (GeneID 40693) | 4 | 7.71e5 | 6.68e5 | 5.75e5 | 5.90e5 | inactive |
| Ugt36D1 (GeneID 35138) | 1 | 9.27e5 | 8.41e5 | 1.43e6 | 1.65e6 | inactive |
| AOX2 (GeneID 41895) | 1 | 1.09e5 | 1.24e5 | 1.58e6 | 1.82e6 | inactive |
| Vps39 (GeneID 42192) | 1 | 1.01e5 | 69028 | 5.22e5 | 5.66e5 | inactive |
| CG33257 (GeneID 2768960) | 1 | 2.09e5 | 1.91e5 | 2.06e6 | 1.61e6 | inactive |
| CG31013 (GeneID 326111) | 1 | 2.04e5 | 2.59e5 | 2.03e6 | 2.77e6 | inactive |
| AspRS-m (GeneID 326155) | 1 | 88179 | 1.08e5 | 1.37e6 | 1.59e6 | inactive |
| igl (GeneID 36681) | 1 | 1.21e6 | 8.39e5 | 2.79e6 | 2.43e6 | inactive |
| igl (GeneID 36681) | 2 | 6.06e5 | 5.50e5 | 1.85e6 | 1.52e6 | inactive |
| CG7786 (GeneID 36802) | 1 | 84093 | 1.24e5 | 2.09e6 | 2.09e6 | inactive |
| CG7786 (GeneID 36802) | 2 | 3.27e5 | 3.10e5 | 7.72e5 | 7.38e5 | inactive |
| Ance (GeneID 34805) | 1 | 1.57e6 | 9.55e5 | 7.86e5 | 1.34e6 | inactive |
| hob (GeneID 38395) | 1 | 9.76e5 | 8.17e5 | 1.06e6 | 1.21e6 | inactive |
| hob (GeneID 38395) | 2 | 1.13e6 | 9.91e5 | 1.13e6 | 1.00e6 | inactive |
| CG6168 (GeneID 39273) | 1 | 2.06e5 | 1.79e5 | 2.12e6 | 2.00e6 | inactive |
| tor (GeneID 35717) | 1 | 2.83e5 | 3.60e5 | 2.22e6 | 1.38e6 | inactive |
| tor (GeneID 35717) | 2 | – | – | – | – | inactive |
| tor (GeneID 35717) | 3 | – | – | – | – | inactive |
| Arp1 (GeneID 41566) | 1 | 53363 | 51673 | 1.04e6 | 1.13e6 | inactive |
| Arp1 (GeneID 41566) | 2 | 4.07e5 | 2.73e5 | 5.90e5 | 6.77e5 | inactive |

Just “firefly reporter light, replicate 2”, for 6 of the entries above:
AspRS-m (GeneID 326155): 1.08e5
igl (GeneID 36681) #1: 8.39e5
igl (GeneID 36681) #2: 5.50e5
CG7786 (GeneID 36802) #1: 1.24e5
CG7786 (GeneID 36802) #2: 3.10e5
Ance (GeneID 34805): 9.55e5

The results go on.
| gene | reagent | firefly reporter light, replicate 1 | firefly reporter light, replicate 2 | Renilla control light, replicate 1 | Renilla control light, replicate 2 | Outcome |
| --- | --- | --- | --- | --- | --- | --- |
| ORY (GeneID 3355174) | 1 | 6.71e5 | 8.38e5 | 1.89e6 | 1.77e6 | inactive |
| Cht4 (GeneID 49815) | 1 | 3.72e5 | 3.92e5 | 1.90e6 | 1.58e6 | inactive |
| DNAlig1 (GeneID 37791) | 1 | 1.02e6 | 7.75e5 | 1.23e6 | 1.19e6 | inactive |
| Alg9 (GeneID 43031) | 1 | 96392 | 89497 | 5.68e5 | 6.40e5 | inactive |
| Dyb (GeneID 36362) | 1 | 4.50e5 | 2.86e5 | 3.26e6 | 2.46e6 | inactive |
| Dyb (GeneID 36362) | 2 | 9.82e5 | 1.03e6 | 1.36e6 | 1.91e6 | inactive |
| Dyb (GeneID 36362) | 3 | 6.47e5 | 5.71e5 | 1.63e6 | 1.41e6 | inactive |
| Cpr67Fa1 + Cpr67Fa2 | 1 | 5.86e5 | 9.48e5 | 1.52e6 | 1.68e6 | inactive |
| l(3)04053 (GeneID 46158) | 1 | 2.57e5 | 2.88e5 | 2.20e6 | 2.18e6 | inactive |
| mus301 (GeneID 38905) | 1 | 3.54e5 | 1.66e5 | 3.80e6 | 1.54e6 | inactive |
| CG7071 + Muted | 1 | 2.68e5 | 3.27e5 | 3.42e6 | 2.92e6 | inactive |
| CG7800 (GeneID 40963) | 1 | 1.55e5 | 1.33e5 | 2.76e6 | 2.39e6 | inactive |
| CG7800 (GeneID 40963) | 2 | 2.95e5 | 2.07e5 | 8.80e5 | 8.52e5 | inactive |
| Fad2 (GeneID 44006) | 1 | 52280 | 60467 | 1.05e6 | 9.55e5 | inactive |
| Fad2 (GeneID 44006) | 2 | 6.23e5 | 4.51e5 | 6.90e5 | 5.74e5 | inactive |
| CG4151 (GeneID 31465) | 1 | 3.65e5 | 4.15e5 | 2.56e6 | 1.73e6 | inactive |
| GCS2alpha (GeneID 49953) | 1 | 1.96e5 | 1.83e5 | 4.66e5 | 5.44e5 | inactive |
| CG14561 (GeneID 40447) | 1 | 58273 | 60797 | 9.61e5 | 9.14e5 | inactive |
| Axn (GeneID 43565) | 1 | 3.60e5 | 3.77e5 | 1.83e6 | 2.35e6 | inactive |
| Axn (GeneID 43565) | 2 | 9.46e5 | 6.38e5 | 6.88e5 | 6.88e5 | inactive |
| Vha55 (GeneID 41550) | 1 | 44511 | 45410 | 3.29e5 | 4.95e5 | inactive |
| Vha55 (GeneID 41550) | 2 | 2.46e5 | 3.55e5 | 7.02e5 | 6.17e5 | inactive |
| Eip63E (GeneID 38433) | 1 | 6.71e5 | 1.07e6 | 1.08e6 | 1.20e6 | inactive |
| Eip63E (GeneID 38433) | 2 | – | – | – | – | inactive |
| CG2186 (GeneID 32017) | 1 | 1.89e5 | 1.35e5 | 8.49e5 | 1.03e6 | inactive |
| CG2186 (GeneID 32017) | 2 | 8.33e5 | 6.52e5 | 6.34e5 | 5.75e5 | inactive |
| CG9717 (GeneID 43636) | 1 | 1.15e5 | 1.67e5 | 1.97e6 | 2.43e6 | inactive |
| tap (GeneID 39935) | 1 | 1.69e5 | 1.42e5 | 2.09e6 | 1.85e6 | inactive |
| mago (GeneID 37402) | 1 | 2.40e5 | 1.51e5 | 1.82e6 | 1.28e6 | inactive |
| CG7016 (GeneID 42968) | 1 | 1.90e5 | 2.06e5 | 1.69e6 | 2.48e6 | inactive |
| repo (GeneID 47285) | 1 | 3.53e5 | 4.20e5 | 1.06e6 | 1.15e6 | inactive |
| repo (GeneID 47285) | 2 | 6.37e5 | 6.21e5 | 1.22e6 | 7.54e5 | inactive |
| Tmem18 (GeneID 246418) | 1 | 2.52e5 | 2.50e5 | 9.04e5 | 8.43e5 | inactive |
